# About 1,800 (2.3%) of roughly 78,000 compounds were called active. The shares of active, inactive and inconclusive entries below differ from those in the screen. No stated cut-off is given here; in the data, active means inhibition above about 30%; inconclusive means mostly about 10% to 28%; inactive means weaker than that.
# Amino acid sequences for entries named in this document (tags omitted). A change or cut given only in a name is not applied to a line headed by its entry.
# UniProt Q01638: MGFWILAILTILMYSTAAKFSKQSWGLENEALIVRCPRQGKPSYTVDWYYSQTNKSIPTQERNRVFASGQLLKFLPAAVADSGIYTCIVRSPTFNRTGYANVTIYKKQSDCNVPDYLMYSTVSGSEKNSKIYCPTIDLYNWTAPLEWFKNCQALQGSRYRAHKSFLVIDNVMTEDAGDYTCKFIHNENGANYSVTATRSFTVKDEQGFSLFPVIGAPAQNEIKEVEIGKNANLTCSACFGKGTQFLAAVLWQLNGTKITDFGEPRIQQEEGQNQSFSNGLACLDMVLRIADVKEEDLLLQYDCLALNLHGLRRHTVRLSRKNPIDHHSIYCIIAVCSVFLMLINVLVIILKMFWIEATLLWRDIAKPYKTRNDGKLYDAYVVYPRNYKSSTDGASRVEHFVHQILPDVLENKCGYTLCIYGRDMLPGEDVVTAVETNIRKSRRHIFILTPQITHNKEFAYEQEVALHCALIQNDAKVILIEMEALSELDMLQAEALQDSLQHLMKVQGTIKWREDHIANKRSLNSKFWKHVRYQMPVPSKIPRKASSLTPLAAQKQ
# Target: Interleukin-1 receptor-like 1 (Homo sapiens) (UniProt Q01638)
# Assay: blocks human ST2 binding to IL-33, primary screen, biochemical, AlphaLISA (AID 1259354)
# Conditions: AlphaLISA ST2-Fc/biotin-IL-33 interaction, 1 h; at 17 µM, active compounds read high
row,Compound,inhibition
1,COC(=O)c1c(NC(=O)COc2cc(C)cc(C)c2)sc2c1CCC(C)C2 (stereo not drawn),inconclusive: 13%
2,CCN(Cc1ccccc1)C(=O)C1CCC(CNS(=O)(=O)c2cccc3nsnc23)CC1 (stereo not drawn),inconclusive: 14%
3,COc1cc(S(=O)(=O)N2CCN(c3ccc(C)c(C)c3)CC2)c(OC)cc1Br,inconclusive: 14%
4,Cc1nc(SCC(=O)N2CCCCC2)c2c(=O)n(C)c(=O)n(C)c2n1,inactive
5,COCCN1CCCC2(CCN(C(=O)c3scc4c3OCCO4)C2)C1=O (stereo not drawn),inactive
6,Cc1ccc(Cn2cnc3c(cnn3-c3ccccc3)c2=O)cc1,inconclusive: 12%
7,CC1CCc2sc(N3C(=O)C4CC=C(Cl)CC4C3=O)c(C#N)c2C1 (stereo not drawn),inactive
8,COc1ccccc1-n1c(SCC(=O)Nc2ccc(F)cc2F)nc2c(c1=O)SCC2,inconclusive: 25%
9,Cc1cccc(NC(=O)CSc2nc3c(c(=O)n2-c2ccccc2)SCC3)c1,inconclusive: 24%
10,COCCNC(=O)c1ccc(/C=C2\Sc3ccccc3N(Cc3ccc(F)cc3)C2=O)cc1,inactive
11,c1cc(-c2cc(C3CCN(Cc4cncnc4)C3)ccn2)ccn1 (stereo not drawn),inconclusive: 19%
12,CNCC(=O)N1CCCC1c1nc(-c2cccnc2)no1 (stereo not drawn),inconclusive: 21%
13,Clc1ccc(-n2ncc3c(NCc4ccccc4Cl)ncnc32)cc1,inconclusive: 12%
14,Cc1cc2c(F)ccc(C)c2nc1N1CCC(O)(C(=O)O)CC1,inconclusive: 18%
15,COc1ccc(/C=C2/SC(=Nc3ccccc3Cl)NC2=O)cc1,inconclusive: 26%
16,COc1ccc2c(c1)Sc1ccccc1N2CCN(C)C,inconclusive: 14%
17,CN1CCN(C)C2(CCN(C(=O)C3(c4ccc(Cl)cc4)CCC3)CC2)C1,inconclusive: 16%
18,O=C(NC[C@@H]1C[C@@H]2C=C[C@H]1C21CC1)c1cc(COc2ccc(-n3cncn3)cc2)on1,inconclusive: 18%
19,COc1ccc(CCN2CC(C(=O)NC3c4ccccc4-c4ccccc43)CCC2=O)cc1 (stereo not drawn),inconclusive: 18%
20,CN1CCCn2nc(C(=O)N3CCN(Cc4ccc(F)cc4)C(=O)C3)cc2C1,inconclusive: 24%
21,O=C(Nc1cccc(-c2ccc(F)cc2)c1)C1CCCN(C(=O)c2cccs2)C1 (stereo not drawn),inactive
22,O=C(Nc1ccc(OCc2ccccc2)cc1)c1cnc2n(c1=O)CCS2,inactive
23,CN(CC1CCN(CCc2ccc(F)cc2)CC1)C(=O)c1cc2ccccc2oc1=O,inactive
24,CC(=O)Nc1ccc(N=Cc2ccc(OCc3ccccc3)cc2)cc1,inconclusive: 18%

row,Compound,inhibition
1,CN1CCc2c(sc(NC(=O)COc3ccccc3)c2-c2nc3ccccc3s2)C1,inconclusive: 16%
2,CCOC(=O)C1(C/C=C/c2ccccc2)CCCN(C(=O)Cn2cncn2)C1 (stereo not drawn),inactive
3,COc1ccc(C(=O)Nc2ccc3nn(-c4ccc(F)cc4)nc3c2)cc1[N+](=O)[O-],inconclusive: 17%
4,CCC1(C)Cc2c(sc3nc(SCC(=O)OC)n(Cc4ccccc4)c(=O)c23)CO1 (stereo not drawn),inconclusive: 16%
5,Cc1ccc(CNC(=O)C2CCCN2C(=O)c2ccc(-c3noc(C)n3)cc2)cc1 (stereo not drawn),inconclusive: 16%
6,Cc1ccc(CN2C[C@H](O)C[C@H]2c2nc(-c3ccc4c(c3)OCO4)no2)cc1,inconclusive: 12%
7,COc1cc(CN2CCC(CCC(=O)NCc3ccc(F)cc3)CC2)cc2c1OCO2,inconclusive: 13%
8,COc1cc(CN2CCOCC2)cc(OC)c1,inconclusive: 10%
9,c1ccc(CN(CCN2CCOCC2)Cc2ccco2)nc1,inactive
10,CCOC(=O)c1c(C)oc2ccc(OCc3cccc(Cl)c3)cc12,inactive
11,CCOC(=O)C1(CC2CC2)CCN(Cc2ccccc2C(F)(F)F)CC1,inactive
12,COc1cc(-c2ccccc2)nc(N)n1,inconclusive: 17%
13,Cc1ccc(-n2ncc3c2CC(C)(C)CC3NC(=O)/C=C/C(C)C)cc1 (stereo not drawn),inactive
14,Cc1cccc(Oc2coc3cc(OCC(=O)OCCC(C)C)ccc3c2=O)c1,inconclusive: 12%
15,COc1ccc(C2=N/C(=C\c3ccc(OC)c(OC)c3OC)C(=O)O2)cc1OC,inconclusive: 18%
16,COc1ccccc1-c1ccnc(N[C@H]2CO[C@H]3[C@@H]2OC[C@@H]3NC(=S)NC2CCCCC2)n1,inconclusive: 25%
17,Cc1ccccc1-c1nc(CSCC(=O)NC(C)c2ccc3c(c2)OCCO3)c(C)o1 (stereo not drawn),inconclusive: 24%
18,c1cncc(-c2nnc([C@H]3CCN(CC4CCCCC4)C3)o2)c1,inconclusive: 24%
19,CC1(C)[C@]2(C(=O)N3CCCC3)CC[C@]1(C)C(=O)C2,inconclusive: 29%
20,O=c1c2sccc2n(Cc2ccc(F)cc2)c(=O)n1-c1ccccc1,inactive
21,CC(C(=O)N(C)CCC(C)(C)O)n1cc(Cl)cn1 (stereo not drawn),inactive
22,O=C(c1ccc(CS(=O)(=O)c2c(Cl)cccc2Cl)o1)N1CCc2ccccc2C1,inconclusive: 18%
23,COc1c(Cl)cc(C(=O)Nc2nc3ccccc3s2)cc1Cl,inconclusive: 10%
24,COc1ccc(C2C(C(=O)Nc3ccccn3)=C(C)NC3=C2C(=O)CCC3)c(OC)c1 (stereo not drawn),inactive

row,Compound,inhibition
1,Cc1cccc(C(=O)N2CCC3(CCCN(CCC4CCCCC4)C3)C2)n1 (stereo not drawn),inconclusive: 22%
2,O=c1c2ccccc2nc(/C=C/c2ccc([N+](=O)[O-])o2)n1Cc1ccccc1,inactive
3,Cc1cc(C)n(C2CCN(C(=O)CN3CCOc4ccccc4C3)C2)n1 (stereo not drawn),inactive
4,COc1ccc(C(=O)Nc2cccc([N+](=O)[O-])c2)cc1,inconclusive: 12%
5,COc1cc(NC(=O)COc2ccc(Br)cc2)c(OC)cc1Cl,inconclusive: 12%
6,Cc1ccc(-c2nc3cnccn3c2Nc2ccc3c(c2)OCO3)cc1,inconclusive: 11%
7,CCOc1cc(C(=O)Nc2cccc(NC(=O)c3cccs3)c2)cc(OCC)c1OCC,inconclusive: 15%
8,Cc1cc(Br)ccc1NS(=O)(=O)c1ccc2c(c1)CCN2C(=O)C1CC1,inconclusive: 14%
9,O=C(Cn1c(=O)n(-c2ccccc2)c(=O)c2sccc21)NC1CCCCC1,inconclusive: 14%
10,Cc1cc(C(=O)Nc2cc(C)n(Cc3ccc(Cl)cc3)n2)no1,inconclusive: 13%
11,O=C(CCCn1cnc([N+](=O)[O-])n1)Nc1cc(Cl)ccc1Cl,inactive
12,CC(=O)n1cc(C(C[N+](=O)[O-])SCCNC(=O)c2ccco2)c2ccccc21 (stereo not drawn),inconclusive: 10%
13,COc1ccccc1/C=c1\sc2nnc(-c3ccc(C)cc3)n2c1=O,inactive
14,Cc1ccc(Nc2cc(C)nc(Nc3ccc(NC(=O)c4ccc(F)cc4)cc3)n2)cc1,inconclusive: 10%
15,Cc1c(C(=O)Nc2ccccc2C(=O)NCc2ccccc2)cccc1[N+](=O)[O-],inconclusive: 19%
16,Cc1c(CN2CCC(c3cc(C(C)C)n[nH]3)CC2)c(=O)n(-c2ccccc2)n1C,inconclusive: 18%
17,Fc1ccccc1CO/N=C1/CCCc2nonc21,inconclusive: 10%
18,CC(C)NC(=O)CN(Cc1ccc(Cl)cc1Cl)S(=O)(=O)c1ccccc1,inconclusive: 13%
19,COc1cc(C=O)ccc1OCCCOc1cccc(C)c1C,inactive
20,O=C(O)C1CN(c2ncccn2)CCN1Cc1cnc[nH]1 (stereo not drawn),inactive
21,COC(=O)c1c(NC(=O)COc2ccccc2)sc2c1CCN(C(C)C)C2,inactive
22,COCC1(C(=O)NC(C)Cc2cc(C)[nH]n2)CCC1 (stereo not drawn),inconclusive: 20%
23,O=C(NCCc1ccccc1)c1noc2c1CCCCC2,inconclusive: 11%
24,COc1ccc(NC(=O)CSc2nnc3c4ccccc4n(C)c3n2)cc1,inconclusive: 16%

# Not a retest: an excerpt of the list.
row,Compound,inhibition
12,CC(=O)n1cc(C(C[N+](=O)[O-])SCCNC(=O)c2ccco2)c2ccccc21 (stereo not drawn),inconclusive: 10%
13,COc1ccccc1/C=c1\sc2nnc(-c3ccc(C)cc3)n2c1=O,inactive

# (next part)

row,Compound,inhibition
1,CC(=O)c1cccc(N=Cc2cccc([N+](=O)[O-])c2O)c1,inconclusive: 15%
2,COc1ccc(-c2ccnc(N[C@H]3CO[C@H]4[C@@H]3OC[C@@H]4NC(=O)N3CCOCC3)n2)cc1,inconclusive: 11%
3,Cc1cnccc1N1CCCN(C2CCN(C(=O)c3ccccc3)CC2)CC1,inconclusive: 11%
4,NC(=O)c1ccc(C(=O)N(C2CCCCC2)C2CCCCC2)cc1,inactive
5,Nc1ccnc(N2C[C@H](O)[C@@H](N3CCN(c4ccccn4)CC3)C2)n1,inactive
6,CCN(CC)CC(=O)Nc1c(C(=O)OC)[nH]c2ccc(Br)cc12,inconclusive: 11%
7,CC(=O)n1c2ccccc2c2cc(Br)ccc21,inconclusive: 11%
8,COc1ccc(-c2noc([C@@H]3C[C@@H](O)CN3C3CCCCC3)n2)cc1,inconclusive: 12%
9,Cc1nnc(SCC(=O)Nc2nc3ccccc3s2)s1,inactive
10,Cc1ccc(CSC2=NCCN2C(=O)c2ccc(S(=O)(=O)N3CCOCC3)cc2)cc1,inactive
11,Cc1ccc(-n2nc(C)c([C@@H]3C=C[C@@H](NC(=O)COCC(=O)O)C3)c2C)cc1Cl,inconclusive: 13%
12,COc1ccc(OC)c(CNS(=O)(=O)c2ccc3[nH]c(=O)sc3c2)c1,inactive
13,Cc1n[nH]c(C)c1CCC(=O)N1CCCC2(C1)C(=O)Nc1ccccc12 (stereo not drawn),inconclusive: 12%
14,CCC(Nc1cccc(OC)c1)C(=O)N1CCC(C(=O)OC)CC1 (stereo not drawn),inconclusive: 10%
15,Cc1ccc(N=C2C(=O)N(CN3CCOCC3)c3ccccc32)cc1,inactive
16,CC(C)NC(=O)NC[C@H]1O[C@@H](CO)[C@@H](O)[C@H]1N1CCCC1,inconclusive: 16%
17,CC(NC(=O)c1ccc(CS(=O)(=O)c2ccc(Br)cc2)o1)c1ccccc1 (stereo not drawn),inconclusive: 11%
18,COc1ccccc1N1CCN(C(=O)c2sc3ccccc3c2Cl)CC1,inactive
19,CCc1ccc(-c2nc3cc(N)ccc3o2)cc1,inconclusive: 23%
20,COc1cccc2c1OCC(C(=O)N1CC(c3ccccn3)C1)C2 (stereo not drawn),inconclusive: 17%
21,O=C(OC1CCCCC1)c1cc2cc(Br)ccc2oc1=O,inactive

# Filtered by structure: those above with an NH in an aromatic ring.
row,Compound,inhibition
16,Cc1c(CN2CCC(c3cc(C(C)C)n[nH]3)CC2)c(=O)n(-c2ccccc2)n1C,inconclusive: 18%
20,O=C(O)C1CN(c2ncccn2)CCN1Cc1cnc[nH]1 (stereo not drawn),inactive
22,COCC1(C(=O)NC(C)Cc2cc(C)[nH]n2)CCC1 (stereo not drawn),inconclusive: 20%
6,CCN(CC)CC(=O)Nc1c(C(=O)OC)[nH]c2ccc(Br)cc12,inconclusive: 11%
12,COc1ccc(OC)c(CNS(=O)(=O)c2ccc3[nH]c(=O)sc3c2)c1,inactive
13,Cc1n[nH]c(C)c1CCC(=O)N1CCCC2(C1)C(=O)Nc1ccccc12 (stereo not drawn),inconclusive: 12%
